Data on 18 molecules can be found in patent US6207399A (Hemker; Hendrik Coenraad, priority 1995, dated 2001).

Square brackets hold non-standard residues; d marks the D form. Peptide text beside a SMILES is read from it. * marks the point of attachment. pNA = O=[N+]([O-])c1ccc(N*)cc1; Boc = CC(C)(C)OC(=O)* Where only a bound is given, the exact number is not on record here.

Data set [1] is described as follows: general procedure: solution-phase peptide synthesis; ONSu active esters with DIPEA in DMF.
In data set [2] the test system is thrombin formation in plasma. Nature of the data set: Continuous registration of the thrombin generation curve (continuous assay of ETP). The data set is classed as biochemical, human. The settings on record: for heparin (ISH) concentration at which the substrate gives a correct thrombin generation curve in the continuous assay: heparinized plasma, substrate 500 μM. The method, then:
(§1) Continuous registration of the thrombin generation curve: Extrinsic pathway: In a polystyrene microcuvette were added: 400 μL defibrinated plasma, 20 μL of a 45 μM phospholipid solution (final concentration: 1.5 μM), 140 μL of buffer A which contains the substrate at the desired final concentration (100-2000 μM). After 4 min of incubation at 37° C., 20 μL tissue factor (undiluted) was added. Thrombin generation was started by adding 20 μL of a 0.5 M CaCl2 solution (final concentration: 16.67 mM); during the measurement the temperature was kept at 37° C. The optical density was monitored at 405 nm. From the obtained optical density curve, the first derivative was calculated. This gives the enzyme concentration during the measurement. Intrinsic pathway: 400 μL defibrinated plasma, 110 μL buffer A (eventually containing the substances to be tested) and 40 μL Actin FS (undiluted) were added in a plastic microcuvette, intensively mixed and incubated at 37° C. during 4 min. Then 30 μL of a 10 mM substrate solution (final concentration: 500 μM), followed by 20 μL of a 0.5 M CaCl2 solution (final concentration: 16.7 mM) were added (both solutions were prewarmed at 37° C. for 4 min). The optical density was measured at 37° C. at 405 nm during 20 min.
as §1, with “concentration: 1.5 μM) and 140 μL” for “concentration: 1.5 μM), 140 μL”, “final concentration (500 μM). After” for “final concentration (100-2000 μM). After”, “derivative was calculated giving the enzyme” for “derivative was calculated. This gives the enzyme”, “20 min. Contact activation: 400 μL defibrinated plasma, 100 μL buffer A (eventually containing the substances to be tested), 9 μL of a 100 μM phospholipid solution (final concentration: 1.5 μM) and 40 μL kaolin (0.5 mg/mL) were added in a plastic microcuvette, intensively mixed and incubated at 37° C. during 4 min. (It was not necessary to remove kaolin by centrifugation.) Then 30 μL of a 10 mM substrate solution (final concentration: 500 μM), followed by 20 μL of a 0.5 M CaCl2 solution (final concentration: 16.7 mM) were added (both solutions were prewarmed at 37° C. for 4 min). The optical density was measured at 37° C. at 405 nm during 25 min.” for “20 min.”

Setting [3] is: late stage modification step, 2HCl.

Molecule 2HCl.H-Glu-Gly-Gly-Gly-Val-Arg-pNA yielded a step yield in data set [1] (setting [3]) of 91%.
The molecule 2HCl.H-Glu-Gly-Gly-Val-Arg-pNA registered a step yield in data set [1] (setting [3]) of 94%.
Molecule 2HCl.H-Glu-Gly-Pro-Gly-Val-Arg-pNA returned a step yield in data set [1] (setting [3]) of 90%.
Take 2HCl.H-Glu-Pro-Gly-Gly-Val-Arg-pNA: the step yield in data set [1] (setting [3]) was 92%.
As for 2HCl.H-Pro-Gly-Gly-Val-Arg-pNA, the step yield in data set [1] (late stage modification step, HCl) came to 87%.
With `Cl.Cl.NCCCC[C@H](NC(=O)[C@@H]1CCCN1C(=O)[C@H](N)Cc1ccccc1)C(=O)Nc1ccc([N+](=O)[O-])cc1` [2HCl.H-D-Phe-Pro-Lys-pNA] (H-[dF]-Pro-Lys-pNA), in data set [2], the “heparin (ISH) concentration at which the substrate gives a correct thrombin generation curve in the continuous assay” value (shortened to “heparin (ISH) concentration”) turned out to be 5 U ISH/mL.
As to `CC(C)[C@H](N)C(=O)N[C@@H](CCCNC(=N)N)C(=O)Nc1ccc([N+](=O)[O-])cc1.Cl.Cl` [2HCl.H-Val-Arg-pNA] (H-Val-Arg-pNA), the “heparin activity of the sample at which the substrate can be used for ETP determination in a continuous assay” value (shortened to “heparin activity of the sample”) in data set [2] is listed as 0.10-0.15 U ISH/ml.
`CC(C)[C@H](NC(=O)CNC(=O)OC(C)(C)C)C(=O)N[C@@H](CCCNC(=N)N)C(=O)Nc1ccc([N+](=O)[O-])cc1.Cl` [Boc-Gly-Val-Arg-pNA.HCl] (Boc-Gly-Val-Arg-pNA): the “heparin (ISH) concentration” value in data set [2] is listed as “up to 2 U ISH/mL”.
In the case of `COC(=O)CC(=O)NC(C)(C)C(=O)N[C@@H](CCCNC(=N)N)C(=O)Nc1ccc([N+](=O)[O-])cc1.Cl` [MZ-Aib-Arg-pNA.HCl, malonyl-α-aminoisobutyryl-arginine p-nitroanilide methyl ester monohydrochloride], in data set [2], the “anticoagulant activity of the sample below which the substrate can be used in a continuous assay for ETP determination” value is < 0.7 International Standard Units of heparin; the “heparin activity of the sample” value was “at most 0.07 U ISH/ml”; the “limit of reliable detectability of ETP, of the normal value of plasma” value turned out to be 5%. Besides, the “jump in optical density of plasma at the end of the ETP assay” value in data set [2] (optimal conditions) is recorded as roughly 100 mOD.
With `CC(C)[C@H](NC(=O)OCCS(C)(=O)=O)C(=O)N[C@@H](CCCNC(=N)N)C(=O)Nc1ccc([N+](=O)[O-])cc1.Cl` [Msc-Val-Arg-pNA.HCl], in data set [2], the “heparin activity of the sample” value was “up to 0.25 U ISH/ml”; the “limit of reliable detectability of ETP, of the normal value of plasma” value is 2.5%; the “heparin (ISH) concentration” value stood at 0.25 U ISH/mL.
Molecule “Boc-Glu(OtBu)-Gly-Gly-Gly-Val-Arg-pNA.HCl” gave a step yield in data set [1] (coupling step, HCl) of 82%.
The same measure, in the same setting: the value for Boc-Glu(OtBu)-Gly-Gly-Val-Arg-pNA.HCl was 79%; that for “Boc-Glu(OtBu)-Gly-Pro-Gly-Val-Arg-pNA.HCl” was 91%; that for Boc-Glu(OtBu)-Gly-Val-Arg-pNA.HCl was 90%.
The same measure, in the same setting: the value for “Boc-Glu(OtBu)-Pro-Gly-Gly-Val-Arg-pNA.HCl” was 79%; that for Boc-Gly-Gly-Gly-Val-Arg-pNA.HCl was 81%.
For the molecule Boc-Gly-Pro-Gly-Val-Arg-pNA.HCl, the step yield in data set [1] (coupling step, HCl) was found to be 76%.
Take Boc-Pro-Gly-Gly-Val-Arg-pNA.HCl: the step yield in data set [1] (coupling step, HCl) turned out to be 81%.
